Data taken from US8030489B2, “Ornithine derivative” (Astellas Pharma Inc., priority 2007, dated 2011).
The match of structure and compound is tentative.

Protein sequences, listed by entry. Tags and fused reporters are not part of them.
UniProt P43114, whole entry: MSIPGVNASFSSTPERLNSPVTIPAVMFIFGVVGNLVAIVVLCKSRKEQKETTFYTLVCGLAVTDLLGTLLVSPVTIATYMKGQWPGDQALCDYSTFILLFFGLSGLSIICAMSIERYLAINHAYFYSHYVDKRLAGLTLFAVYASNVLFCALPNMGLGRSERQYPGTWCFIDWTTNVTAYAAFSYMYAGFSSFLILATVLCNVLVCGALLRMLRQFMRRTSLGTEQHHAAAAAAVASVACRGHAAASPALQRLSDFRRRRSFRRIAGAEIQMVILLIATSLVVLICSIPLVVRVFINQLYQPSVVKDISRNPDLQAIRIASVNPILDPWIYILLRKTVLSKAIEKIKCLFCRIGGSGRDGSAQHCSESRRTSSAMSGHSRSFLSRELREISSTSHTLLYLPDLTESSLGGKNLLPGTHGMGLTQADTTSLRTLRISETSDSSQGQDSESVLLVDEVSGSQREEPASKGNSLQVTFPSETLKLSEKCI

Target: rat EP4 receptor (Rattus norvegicus, UniProt P43114)
Assay: Evaluation test on rat EP4 receptor affinity ([3H]PGE2 binding assay)
Settings: rat EP4 expressed in HEK293 membrane fraction, [3H]PGE2 0.3 nM
Method: Test Example 1: Evaluation Test on Rat EP4 Receptor Affinity
Cell Culture and Transfection
Using a 10 cm collagen-coated dish (Asahi Glass), HEK293 cells were cultured in a D-MEM culture medium, washed with a phosphate buffer saline (PBS), the culture medium was removed off at a confluence (90 to 100% density state), and then the cells were detached with N,N,N′,N′-tetrakis(carboxymethyl)ethylenediamine (EDTA). The cells were counted and seeded on a 15 cm collagen-coated dish to a confluence of 70%. The next day, to an Opti-MEM culture medium at 1.2 mL/dish was added Lipofectamine 2000 (Invitrogen) at 60 μL/dish, followed by being left to stand at room temperature for 5 minutes. A plasmid in which a rat EP4 (alignment number 1) had been inserted into a TA cloning site of pcDNA3.1-V5-His-topo was added thereto to 15 μg/dish. […]
[^3H] […] The UniFilter-96 GF/B after filtration was dried in a dryer overnight, 50 μL/well of MicroScint20 (Perkin Elmer) was added thereto, and then the radioactivity was measured using a TopCount (Perkin Elmer). […] All of the measurements were carried out in duplicate, and the specific binding amount was determined by subtracting the non-specific binding amount from the total binding amount.
According to Test Example 1 as above, the rat EP4 receptor affinity (Ki) of the compound of the formula (I) was measured.

Ki [nM] | SMILES
0.82 | Cn1c(C(=O)N[C@@H](CCCNC(=O)OCc2ccccc2)C(=O)N[C@H]2CCC[C@H]2c2noc(=O)[nH]2)cc2ccccc21
4.6 | Cn1c(C(=O)N[C@@H](CCCNC(=O)OCc2ccccc2)C(=O)N[C@H]2CCC[C@@H]2OCC(=O)O)cc2ccccc21
